Results are given in words; binding and its absence hold for the method and conditions named. Some results given as binding are weak or reduced against the parent protein; the word gives no strength.
Legend:
[1] = target: TRAP deposited by previous osteoclast activity on human cortical bone wafers (human) (UniProt P13686); test: confocal imaging of fluorescent peptide on cortical bone wafers
[2] = target: TRAP deposited by previous osteoclast activity on human cortical bone wafers (human) (UniProt P13686); test: confocal imaging of fluorescent peptide on human cortical bone wafers

Chains of the proteins cited; added tags and fusions are not shown. Residues count along the entry.
UniProt P13686, residues 22-325: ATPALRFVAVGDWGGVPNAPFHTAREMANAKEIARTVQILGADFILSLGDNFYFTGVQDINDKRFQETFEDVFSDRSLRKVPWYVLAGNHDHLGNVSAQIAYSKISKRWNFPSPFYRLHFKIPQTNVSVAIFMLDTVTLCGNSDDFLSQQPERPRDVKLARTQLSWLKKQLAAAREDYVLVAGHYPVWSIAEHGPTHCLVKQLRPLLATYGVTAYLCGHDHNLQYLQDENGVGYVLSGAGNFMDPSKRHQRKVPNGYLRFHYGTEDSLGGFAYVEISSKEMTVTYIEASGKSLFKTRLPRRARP

In the case of TPLSYLKGLVTVG (fluorescent cadaverine coupled with NHS/DCC (site not stated)) [fluorescently labeled TRAP-binding peptide (TBP)], the binding [1] is reported as “binds” and the binding [2] is reported as “binds”.

Source: patent publication US20170072062A1 (published 2017)
